Measured values published in PMC11467166.
Results are given in words; binding and its absence hold for the method and conditions named. In cells and extracts the contact can be indirect. Some results given as binding are weak or reduced against the parent protein; the word gives no strength.

Amino acid sequences for entries named in this document (tags omitted). Residues count along the entry.
UniProt Q13153, residues 70-117: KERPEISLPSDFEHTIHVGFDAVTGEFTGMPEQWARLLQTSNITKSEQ
UniProt Q13263: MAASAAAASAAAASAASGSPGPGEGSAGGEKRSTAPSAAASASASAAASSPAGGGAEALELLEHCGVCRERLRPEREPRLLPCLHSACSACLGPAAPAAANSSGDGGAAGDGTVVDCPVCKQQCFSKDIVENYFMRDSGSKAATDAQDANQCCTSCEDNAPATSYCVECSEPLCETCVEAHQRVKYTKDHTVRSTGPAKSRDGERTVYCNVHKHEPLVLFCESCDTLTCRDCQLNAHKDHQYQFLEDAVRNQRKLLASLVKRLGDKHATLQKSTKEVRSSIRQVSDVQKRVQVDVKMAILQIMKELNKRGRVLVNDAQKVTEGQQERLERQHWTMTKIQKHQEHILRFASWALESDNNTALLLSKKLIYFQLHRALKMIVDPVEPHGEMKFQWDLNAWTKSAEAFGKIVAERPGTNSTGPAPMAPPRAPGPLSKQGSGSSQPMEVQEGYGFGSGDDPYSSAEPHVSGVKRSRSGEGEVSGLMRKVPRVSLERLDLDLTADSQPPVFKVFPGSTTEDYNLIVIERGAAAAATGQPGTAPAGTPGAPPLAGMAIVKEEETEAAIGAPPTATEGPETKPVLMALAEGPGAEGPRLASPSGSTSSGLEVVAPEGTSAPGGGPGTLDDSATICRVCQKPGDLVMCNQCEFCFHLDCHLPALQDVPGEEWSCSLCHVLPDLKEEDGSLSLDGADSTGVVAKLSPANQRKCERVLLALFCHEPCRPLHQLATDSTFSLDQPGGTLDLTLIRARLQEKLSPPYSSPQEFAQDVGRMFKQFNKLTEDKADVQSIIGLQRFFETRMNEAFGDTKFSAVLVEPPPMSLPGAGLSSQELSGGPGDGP
UniProt P60953: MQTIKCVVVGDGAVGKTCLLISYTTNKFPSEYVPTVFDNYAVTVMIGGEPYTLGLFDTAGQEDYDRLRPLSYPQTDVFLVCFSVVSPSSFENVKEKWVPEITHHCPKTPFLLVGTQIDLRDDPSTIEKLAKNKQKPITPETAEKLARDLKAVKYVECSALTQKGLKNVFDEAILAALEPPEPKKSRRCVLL
UniProt Q06945: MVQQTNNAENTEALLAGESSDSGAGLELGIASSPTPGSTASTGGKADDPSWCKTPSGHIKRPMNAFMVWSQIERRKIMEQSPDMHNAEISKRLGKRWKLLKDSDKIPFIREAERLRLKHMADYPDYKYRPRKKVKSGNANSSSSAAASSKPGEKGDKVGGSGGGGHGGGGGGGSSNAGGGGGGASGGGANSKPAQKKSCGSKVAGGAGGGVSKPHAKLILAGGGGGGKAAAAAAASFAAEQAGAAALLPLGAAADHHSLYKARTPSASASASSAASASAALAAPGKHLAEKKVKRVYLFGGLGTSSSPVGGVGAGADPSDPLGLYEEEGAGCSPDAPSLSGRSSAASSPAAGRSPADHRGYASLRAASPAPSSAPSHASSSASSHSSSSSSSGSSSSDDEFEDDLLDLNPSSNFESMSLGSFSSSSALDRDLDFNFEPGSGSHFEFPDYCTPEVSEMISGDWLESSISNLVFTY
UniProt P35716: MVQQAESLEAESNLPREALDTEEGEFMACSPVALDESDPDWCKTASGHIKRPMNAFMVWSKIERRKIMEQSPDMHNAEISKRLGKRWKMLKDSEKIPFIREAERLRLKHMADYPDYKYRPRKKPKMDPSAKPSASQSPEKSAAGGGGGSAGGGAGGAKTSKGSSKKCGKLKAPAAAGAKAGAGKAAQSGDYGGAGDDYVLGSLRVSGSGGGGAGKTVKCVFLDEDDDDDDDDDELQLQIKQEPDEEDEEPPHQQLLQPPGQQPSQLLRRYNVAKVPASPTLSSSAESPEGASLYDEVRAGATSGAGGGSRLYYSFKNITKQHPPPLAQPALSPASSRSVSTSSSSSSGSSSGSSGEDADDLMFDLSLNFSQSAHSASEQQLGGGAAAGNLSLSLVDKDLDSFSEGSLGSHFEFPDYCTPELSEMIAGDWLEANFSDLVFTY

What was measured:
[1] = molecular target: GST-Pak1 70-117 (UniProt Q13153); experiment: pull-down; 60 μg GST-RBD or GST-PBD beads incubated with about 800 μg U251 lysate (50 mM Tris pH 7.6, 150 mM NaCl, 1% Triton X-100, 20 mM MgCl2), 1 h, 4°C; cells taken at 0-7 days after lentiviral infection (SOX4, SOX11, NGN2, NGN2-SOX4, NGN2-SOX11); immunoblot for RhoA, RAC1, CDC42; only the target purified
[2] = molecular target: HA-TRIM28 (UniProt Q13263); experiment: co-IP; U251 cells transfected with SOX4/11 with or without HA-TRIM28; whole cell lysates (1xPBS, 1 mM EDTA, 0.5% Triton X-100) precipitated with anti-HA magnetic beads, 2 h, 4°C; immunoblot for SOX4 and SOX11

binding [1] | binding [2] | Substance
binds | – | GTP-CDC42 (from UniProt P60953 1-191)
– | binds | SOX4 (from UniProt Q06945 1-474)
– | binds | SOX11 (from UniProt P35716 1-441)
